Laboratory results published in PubChem BioAssay AID1671192 (National Center for Advancing Translational Sciences (NCATS), 2021).
The shares of active, inactive and inconclusive entries below differ from those in the screen. Potencies of inconclusive entries are doubtful fits and often do not repeat. Activity calls are given as the source filed them. Calls follow the shape of the dose curve; as a rule, active = well fitted curve in the direction sought with a large enough effect; inconclusive = small, poorly fitted or top-dose-only effect, or another doubt; inactive = no such curve, though single readings can be large or run the other way.

The chains behind the UniProt entries cited, without tags or fusion partners. Where a name states a change or a piece, a line headed by the entry shows the natural chain unless it says otherwise.
UniProt P16050: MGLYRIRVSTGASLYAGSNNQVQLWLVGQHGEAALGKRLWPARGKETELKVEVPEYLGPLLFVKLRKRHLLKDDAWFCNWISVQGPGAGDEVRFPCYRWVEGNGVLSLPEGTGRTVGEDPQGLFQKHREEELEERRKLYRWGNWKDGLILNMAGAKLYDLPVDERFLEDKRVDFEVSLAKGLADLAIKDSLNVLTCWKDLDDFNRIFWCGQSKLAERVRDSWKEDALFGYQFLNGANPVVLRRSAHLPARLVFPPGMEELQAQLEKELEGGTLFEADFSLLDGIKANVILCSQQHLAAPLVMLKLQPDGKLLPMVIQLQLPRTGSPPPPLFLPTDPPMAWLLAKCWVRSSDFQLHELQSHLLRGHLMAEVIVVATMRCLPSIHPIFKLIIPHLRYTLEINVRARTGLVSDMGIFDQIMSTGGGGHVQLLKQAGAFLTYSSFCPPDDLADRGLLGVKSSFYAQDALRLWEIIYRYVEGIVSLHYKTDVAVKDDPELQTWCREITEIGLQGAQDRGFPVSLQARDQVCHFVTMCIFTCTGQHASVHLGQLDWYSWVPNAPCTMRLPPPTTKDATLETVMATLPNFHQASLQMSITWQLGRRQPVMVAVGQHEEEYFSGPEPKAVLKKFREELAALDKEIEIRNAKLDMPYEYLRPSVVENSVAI

Biological target: Polyunsaturated fatty acid lipoxygenase ALOX15 (Homo sapiens) (UniProt P16050)
Experiment: Counterscreen qHTS for inhibitors of human arachidonate 12S-lipoxygenase (ALOX12): ALOX15 Assay; as to activity change, negative = inhibition: 0% is about no effect
Conditions: purified ALOX15 enzyme activity; activity change, negative = inhibition: at 110 µM (top of the series) unless noted
Summary of the method: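 Purified human ALOX15 (15hLO-1) at 40 nM in 25 mM HEPES, 0.01% Triton X-100, pH 7.5, preincubated with compound 15 min at RT. Then 50 uM arachidonic acid for 30 min; hydroperoxide detected by Fe-xylenol orange as the 573/405 nm absorbance ratio.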

Compound | Potency | activity change, negative = inhibition
O=C(O)c1ccc(-c2ccc(C(F)(F)F)cc2)cc1 | inconclusive: 80.4 µM [inhibitor, partial curve] | 
CN1CC(=O)N(C2CCNC2)Cc2c1ncnc2N1CCC(N)CC1 (stereo not drawn) | inconclusive: 0.0555 µM [inhibitor, full curve] | 
O=C(NCc1ccc(Cl)nc1)c1cn2c(n1)CN(C(=O)c1ccccc1)CC2 |  | inactive: -6.13%
O=C1NCc2ccccc2CC12CCN(Cc1ccc(Cl)cc1)C2 (stereo not drawn) | inconclusive: 173 µM [inhibitor, single point] | 
O=C(c1ccc2c(c1)OCO2)N1CCc2nc(C3CC3)nc(-c3ccc(Cl)cc3)c2C1 | inconclusive: 49.4 µM [inhibitor, partial curve] | 
CNCc1ccncc1 | inconclusive: 0.0804 µM [inhibitor, single point] | 
O=C(c1ccc(Cl)cc1)N1CCC(N2CCCC2)CC1 | inconclusive: 0.0308 µM [inhibitor, full curve] | 
O=C1N(c2ccccc2)c2ccccc2C12CCN(CC1CCCCC1)C2 (stereo not drawn) | inconclusive: 55.5 µM [inhibitor, single point] | 
CN1CC(=O)N(C2CCNCC2)Cc2c1ncnc2N1CCCCC1 |  | inactive: -12.3%
O=c1[nH]c(C2CCCN(Cc3ccc(-c4cccs4)cc3)C2)nc2ccc(F)cc12 (stereo not drawn) | inconclusive: 62.2 µM [inhibitor, partial curve, poor fit] | 
COCCNC(=O)c1cc(C)nc2onc(C3CCCNC3)c12 (stereo not drawn) |  | inactive: -17.9% [at 146 µM]
COc1ccc(-c2cc(C(=O)NC3CC3)c3c(C4CCNCC4)noc3n2)cc1 | inconclusive: 87.9 µM [inhibitor, single point] | 
CC(=O)N1CCC(c2nnc3n2CCNC3)CC1 |  | inactive: -21.6% [at 146 µM]
CC(C)NC(=O)N1CCOC2(CCN(C(=O)CCCN)CC2)C1 | inconclusive: 123 µM [inhibitor, single point] | 
NC(=O)c1cccc(CN2CCC3(CC2)Cc2ccccc2N(C(=O)c2ccc(Cl)cc2)C3)c1 | inconclusive: 55.5 µM [inhibitor, partial curve, poor fit] | 
O=C1NCc2ccccc2CC12CCCN(Cc1cccc(Cl)c1)C2 (stereo not drawn) | inconclusive: 97.5 µM [inhibitor, single point] | 
COc1ccc(N2CC3CCC(C2)N3Cc2cccc(-c3ccc(F)cc3F)c2)cc1 | inconclusive: 124 µM [inhibitor, single point] | 
CC(C)NC(=O)N1CCC2(CC1)CN(C(=O)Cc1c[nH]c3ccccc13)CCO2 | inconclusive: 62.2 µM [inhibitor, partial curve] | 
CN1CCN(CC2(N)CCCCC2)CC1 |  | inactive: -3.46% [at 233 µM]
O=C1NCc2ccccc2CC12CCN(Cc1cc(O)cc(O)c1)C2 (stereo not drawn) |  | inactive: 7.36% [at 146 µM]
Cc1ccc(-c2cccc(CN3CCCC(c4nc5ccc(F)cc5c(=O)[nH]4)C3)c2)c(C)c1 (stereo not drawn) |  | inactive: 131%
CCOc1cccc(CN2CCCC23Cc2ccccc2CNC3=O)c1 (stereo not drawn) | inconclusive: 8.79 µM [inhibitor, full curve] | 
O=C(NCc1ccncc1)c1cc(C2CC2)nc2onc(C3CCCN3)c12 (stereo not drawn) | inconclusive: 0.0622 µM [inhibitor, single point] | 

In the list so far, four contain fluorine.
Compound | Potency | activity change, negative = inhibition
O=C(O)c1ccc(-c2ccc(C(F)(F)F)cc2)cc1 | inconclusive: 80.4 µM [inhibitor, partial curve] | 
O=c1[nH]c(C2CCCN(Cc3ccc(-c4cccs4)cc3)C2)nc2ccc(F)cc12 (stereo not drawn) | inconclusive: 62.2 µM [inhibitor, partial curve, poor fit] | 
COc1ccc(N2CC3CCC(C2)N3Cc2cccc(-c3ccc(F)cc3F)c2)cc1 | inconclusive: 124 µM [inhibitor, single point] | 
Cc1ccc(-c2cccc(CN3CCCC(c4nc5ccc(F)cc5c(=O)[nH]4)C3)c2)c(C)c1 (stereo not drawn) |  | inactive: 131%
